Assay results reported in the supplement of paper PMC4683952.
The other results are listed elsewhere or left out. No rule for the calls is given here. Repeats in this data set agree poorly, so a single value says little.

tested on: Lgr5 (MarsCy1-Lgr5-EGFP, U2OS); experiment: cell-surface Lgr5 expression (SCi1 fluorescence, background-subtracted) relative to WT DMSO (fold of DMSO control); higher = more Lgr5 at the plasma membrane; conditions: U2OS MarsCy1-Lgr5-EGFP stable; treatment time: overnight; library: Kinase Gold; 20 µM
Experimental: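 U2OS cells stably expressing MarsCy1-Lgr5-EGFP in 384-well plates were incubated overnight with single-dose compounds. Cell-surface Lgr5 was stained with SCi1 and scanned at 700 nm on a LI-COR Odyssey. Intensity was background-subtracted (parental U2OS) and expressed relative to WT DMSO wells.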

cell-surface Lgr5 expression, inactive:
Cc1nc2ccccc2c(=O)n1NC(=S)Nc1ccccc1 0.75, O=C(NCc1ccc2c(c1)OCO2)C(=O)NCc1ccco1 0.537, O=c1[nH]c(/C=C/c2ccc(O)cc2)nc2ccccc12 1.13, Clc1ccc(OCc2cn3ccccc3n2)c2ncccc12 0.846, O=C(O)c1ccc(NC2CC(O)C(CO)O2)cc1 (stereo not given) 0.947, O=C(NCCN1CCNCC1)C(=O)NCc1ccccc1 1.01, O=C(/C=C/c1ccco1)NC(=S)Nc1ccccc1Cl 0.945, COc1ccc2oc(=O)c(C(=O)Nc3ccc(C)cc3)cc2c1 0.92, CC1(C)Oc2ccc3ccc(=O)oc3c2/C(=C/NNC(N)=S)C1=O 0.231, O=C(Nc1nc2ccccc2n1CCN1CCCCC1)c1ccco1 0.993, O=C(Nc1ccccc1O)c1ccccn1 0.786, Cc1ccc2cccc(NC(=S)NC(=O)c3cccnc3)c2n1 0.692, COc1ccccc1N1CC(O)=C(c2nc3ccccc3c(=O)[nH]2)C1=N 0.969, Cc1c(NC(=O)c2ccncc2)c(=O)n(-c2ccccc2)n1C 0.716, O=C(O)CNC(=O)c1ccccc1NC(=O)c1ccco1 0.993, COc1ccc2oc(=O)c(C(=O)NNC(=O)c3ccncc3)cc2c1 0.832, COC(=O)c1ccc(Nc2cc(=O)[nH]c(=O)[nH]2)cc1 0.824, Cc1ccccc1NC(=O)CSc1nc(N)cc(=O)[nH]1 0.736, Cc1cccc(Nc2nc(OCC#N)nc(N(C)C)n2)c1 0.833, Cc1ccccc1NC(=S)NC(=O)/C=C/c1ccco1 0.688, NNC(=O)c1cc(-c2ccc(Cl)cc2)n[nH]1 0.837, O=C(O)c1ccccc1C(=O)NNc1ccccc1[N+](=O)[O-] 0.875, CCC(=O)NNC(=O)c1c(O)c2ccccc2n(C)c1=O 0.722, Cc1nn(-c2ccccc2)c2sc(C(=O)NN)cc12 0.548, O=c1oc2ccccc2c(Nc2ccccc2O)c1[N+](=O)[O-] 0.719, CCn1c(=O)c(C(=O)NNC(C)=O)c(O)c2ccccc21 0.699, Cc1cc(C)nc(NC(=O)c2ccccc2C(=O)O)n1 0.688, CC(=O)NNC(=O)c1c(O)c2ccccc2n(C)c1=O 0.786, CC(=O)Nc1ccc(/C=C2/SC(=O)NC2=O)cc1 0.822, CC(Oc1ccc2c(c1)oc(=O)c1ccccc12)C(=O)O (stereo not given) 0.82, COC(=O)c1c(N)sc(C(=O)Nc2cc(C)ccc2C)c1C 0.885, O=C(Cc1cccs1)NNC(=S)NC(=O)c1cccnc1 0.694, CC(C)C(=O)NNC(=O)c1c(O)c2ccccc2[nH]c1=O 0.66, COc1cccc(NC2SC(=O)N(c3ccccc3)C2=O)c1 (stereo not given) 0.837, CSc1ccc(/C=C(\C#N)c2nc3ccccc3[nH]2)cc1 0.689, O=C(O)/C(=C\c1ccncc1)NC(=O)c1ccccc1 0.987, O=C(NNC(=O)c1ccco1)c1cnccn1 0.827, CC/C(=C\C(=O)c1cccnc1)Nc1cccc(O)c1 0.7, c1ccc2[nH]c(NCc3ccc4c(c3)OCO4)nc2c1 0.712, CC(=O)Nc1ccc(Nc2cc(C)nc3ccc(C)cc23)cc1 1.08
